Measurements taken from US9409876B2, “Bradykinin receptor antagonists and pharmaceutical compositions containing them” (DOMPE' FARMACEUTICI S.P.A., priority 2013, dated 2016).

Amino acid sequences for entries named in this document (tags omitted).
UniProt P46663, whole entry: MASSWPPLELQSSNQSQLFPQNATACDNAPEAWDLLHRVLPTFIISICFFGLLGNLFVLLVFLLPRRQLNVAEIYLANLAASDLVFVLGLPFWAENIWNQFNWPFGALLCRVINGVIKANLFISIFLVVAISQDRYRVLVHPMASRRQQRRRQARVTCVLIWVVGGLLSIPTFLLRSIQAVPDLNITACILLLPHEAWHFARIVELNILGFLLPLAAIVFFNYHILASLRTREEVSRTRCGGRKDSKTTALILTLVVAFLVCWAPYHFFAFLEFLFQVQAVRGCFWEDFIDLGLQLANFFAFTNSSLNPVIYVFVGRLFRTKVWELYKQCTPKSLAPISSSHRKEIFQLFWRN

Biological target: BKB1 receptors (Homo sapiens, UniProt P46663)
Test: Calcium Mobilization Assay (FLIPR), IMR-90 cells, BKB1
Settings: IL-1 induced IMR-90 cells, agonist desArg10-kallidin (DAKD)
Procedure: Calcium Mobilization Assay (FLIPR)—Human (IMR-90) lung fibroblast cells expressing native BKB1 receptors were harvested by trypsinization and seeded into black wall/clear bottom 96-well plates (Costar 3904; Corning Life Sciences, Acton, Mass.) at approximately 13,000 cells/well. After 1 day incubation, cells were treated with human IL-1 (0.35 ng/ml) in 10% FBS/MEM for 2 h to up-regulate BKB1 receptors. Induced cells were loaded with fluorescent calcium indicator by incubation with 2.3 µM Fluo-4/acetoxymethyl ester (Invitrogen) at 37° C. for 1.5 h in the presence of an anion transport inhibitor (2.5 mM probenecid in 1% FBS/MEM). Extracellular dye was removed by washing with assay buffer (2.5 mM probenecid, 0.1% BSA in 20 mM HEPES/HBSS without bicarbonate or phenol red, pH 7.5) and cell plates were kept in the dark until used. Test compounds were assayed at eight concentrations in triplicate. Addition of test compounds to the cell plate and incubation for 5 min at 35° C., followed by the addition of 2 to 8 nM final BKB1 agonist desArg^10-kallidin (DAKD, 3×EC50) was carried out in the fluorimetric imaging plate reader (FLIPR; Molecular Devices) while continuously monitoring calcium-dependent fluorescence. […]

Compound COc1ccccc1CN(C(=O)Cc1ccc(F)cc1F)C(C(=O)NCC1CCCO1)c1ccc(C)cc1 (stereo not shown) has an IC50 of 1.4 µM.

The match of structure and compound is tentative.
